In patent US20160010082A1:
Results are given in words; binding and its absence hold for the method and conditions named. Binding calls can cover weak binding; strength is not graded here.

B1: eCPX-nSApep-cP2 (protein)
chain: GQSGQAECHPQGPPCIEGRKGGQSGQSGDYNKNQYYGITAGPAYRINDWASIYGVVGVGYGKFQTTEYPTYKHDTSDYGFSYGAGLQFNPMENVALDFSYEQSRIRSVDVGTWILSVGYRFGSKSRRATSTVTGGYAQSDAQGQMNKMGGFNLKYRYEEDNSPLGVIGSFTYTEKSRTASGGQSGQPAPSIDRSTKPPL
B2: eCPX-nSApep-linker-cP2 (protein)
chain: GQSGQAECHPQGPPCIEGRKGGGSGGGSGGGSGGGSGGGSGGQSGQSGDYNKNQYYGITAGPAYRINDWASIYGVVGVGYGKFQTTEYPTYKHDTSDYGFSYGAGLQFNPMENVALDFSYEQSRIRSVDVGTWILSVGYRFGSKSRRATSTVTGGYAQSDAQGQMNKMGGFNLKYRYEEDNSPLGVIGSFTYTEKSRTASGGQSGQPAPSIDRSTKPPL

Tests used:
[1] = target: YPet-Mona; assay: two-colour flow cytometry, 40 nM YPet-Mona alone or with 100 nM SA-PE
[2] = target: YPet-Mona; assay: two-colour flow cytometry, SA-PE and YPet-Mona
[3] = target: YPet-Mona; assay: two-colour flow cytometry, SA-PE and YPet-mona

Binder	binding [1]	binding [2]	binding [3]
B1	binds	–	–
B2	binds	binds	binds
